{
  "source": "patent US8802929B2",
  "about": "“MIR164 gene that controls plant root system development and fertility and use thereof” (Huazhong Agricultural University, priority 2009, dated 2014)",
  "key": {"[1]": {"system": "transgenic plants overexpressing miR164", "experiment": "Restoration of fertility of transgenic plants overexpressing miR164 by external application of hormones", "format": "in vivo, rice", "details": "two T0 transgenic plants; four phytohormones (IAA, NAA, KT, 6-BA) applied continually from tillering stage to grain filling stage; FIG. 7", "text": "Two T0 transgenic plants overexpressing miR164 were continually subjected to external application of four phytohormones, indoleacetic acid (IAA), naphthaleneacetic acid (NAA), kinetin (KT), and 6-benzylaminopurine (6-BA) from tillering stage to grain filling stage, and compared with the transgenic plants overexpressing miR164 grown normally. […] That the fertility of transgenic rice plants overexpressing miR164 could be restored by external application of hormones can be taken advantage of to conveniently use a transgenic rice plant to breed a sterile line (without application of hormones) or a maintainer line (by external application of hormones to allow the sterile line to produce seeds and to be reproduced; however the next generation is still sterile without externally applied hormones), thereby achieving “the double usage of a single line” for the breeding of hybrid rice."}, "[2]": {"system": "miR164", "experiment": "Expression level of mature miR164 after phytohormone treatment, Northern blotting", "format": "in vivo, rice variety Minghui 63 (Oryza sativa L. ssp. Indica)", "details": "rice plants at 4-leaf stage", "procedure": "The indica rice variety “Minghui 63” was used for expression profile analysis. Phytohormone treatment was carried out by evenly spraying the hormones onto the surfaces of the rice plants at the 4-leaf stage obtained from seeds which had been induced to germinate and cultivated under normal growth conditions for 18-20 days. The plants treated with kinetin and gibberellin were sampled before treatment as well as 1 min, 5 min, 10 min, 20 min, 30 min, 1 h, and 3 h after treatment. The plants treated with naphthaleneacetic acid were sampled before treatment as well as 30 min, 3 h, 9 h and 24 h after treatment. The plants treated with brassinolide were sampled before treatment as well as 15 min, 30 min, 1 h, 3 h, 6 h, 9 h and 21 h after treatment. Light treatment of etiolated shoots was performed by subjecting seeds to induction of germination and continuous cultivation in dark for 14 days followed by transferring the etiolated shoots to normal lighting conditions. Samples were taken before light treatment as well as 3 h, 6 h and 9 h after light treatment. […]"}},
  "note": "For at least one compound, name, drawing or mass did not settle the structure.",
  "data": [
    {"molecule": "O=C(O)Cc1cccc2ccccc12", "note": "[naphthaleneacetic acid, Naphthaleneacetic acid]", "values": [
      {"measurement": "seed production of transgenic plants overexpressing miR164 after external application of hormones", "setting": "[1]", "value": "produce seeds normally"},
      {"measurement": "change in expression level of miR164 24 hours after treatment", "setting": "[2]", "value": "increased"}
    ]}
  ]
}
